Data published in patent publication US20040014217A1 (priority 2000, published 2004).

Assay: Fmoc solid-phase peptide synthesis; preloaded Gly-Wang resin; HBTU
Conditions: whole synthesis, reverse phase HPLC, scale 0.1 mmol

For [K]16GACRRETAWACG, the “crude HPLC purity” value was “about 70%”.
